{"source": "PubChem BioAssay AID1259254 (NCATS, 2017)", "assay": "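Gene knock-downs that lead to re-replication, shown by excess G2 DNA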 (primary screen)", "system": "human HCT116 colorectal cancer cells", "knock-down reagent": "single siRNA against human genes", "timing": "3 days", "detection": "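Imaged Hoechst DNA stain sorts each cell into a cycle phase by DNA amount; per plate, G2 fraction set to 0% for non-targeting and 100% for GMNN siRNA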", "scale": "G2 robust z-score and G2 cells, % of GMNN control: higher = more G2 cells, more excess DNA replication", "active means": "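Active siRNAs have a G2 robust z of 5 or more median absolute deviations over the median, which in these data means about 38% or higher of GMNN control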", "note": "Here is a random part of about 59,000 reagents tested. In the full data, about 1,550 (2.6%) were called active. 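G2 share is only a proxy for re-replication; each gene was hit by three separate siRNAs, and active genes were retested.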 Entries without a mark were called inactive. Reagents against one gene are numbered here. Not all columns of the deposit are shown. No sequences are given here. The record does not give: the amount of reagent."}
{"gene knocked down": "CCL15 (GeneID 6359)", "reagent no.": 1, "G2 robust z-score": -0.369, "G2 cells, % of GMNN control": 0.372}
{"gene knocked down": "CCL15 (GeneID 6359)", "reagent no.": 2, "G2 robust z-score": -1.08, "G2 cells, % of GMNN control": -4.64}
{"gene knocked down": "CCL15 (GeneID 6359)", "reagent no.": 3, "G2 robust z-score": -0.711, "G2 cells, % of GMNN control": -2.03}
{"gene knocked down": "LOC150935 (GeneID 150935)", "reagent no.": 1, "G2 robust z-score": 0.506, "G2 cells, % of GMNN control": 6.53}
{"gene knocked down": "LOC150935 (GeneID 150935)", "reagent no.": 2, "G2 robust z-score": -0.82, "G2 cells, % of GMNN control": -2.8}
{"gene knocked down": "LOC150935 (GeneID 150935)", "reagent no.": 3, "G2 robust z-score": 0.125, "G2 cells, % of GMNN control": 3.85}
{"gene knocked down": "CRYGB (GeneID 1419)", "reagent no.": 1, "G2 robust z-score": -0.241, "G2 cells, % of GMNN control": 1.27}
{"gene knocked down": "CRYGB (GeneID 1419)", "reagent no.": 2, "G2 robust z-score": 0.815, "G2 cells, % of GMNN control": 8.7}
{"gene knocked down": "CRYGB (GeneID 1419)", "reagent no.": 3, "G2 robust z-score": -0.284, "G2 cells, % of GMNN control": 0.971}
{"gene knocked down": "IL12A (GeneID 3592)", "reagent no.": 1, "G2 robust z-score": 0.312, "G2 cells, % of GMNN control": 5.16}
{"gene knocked down": "IL12A (GeneID 3592)", "reagent no.": 2, "G2 robust z-score": 1, "G2 cells, % of GMNN control": 10}
{"gene knocked down": "IL12A (GeneID 3592)", "reagent no.": 3, "G2 robust z-score": 0.91, "G2 cells, % of GMNN control": 9.37}
